Source: PubChem BioAssay AID2685 (National Center for Advancing Translational Sciences (NCATS), 2010)
Some of the results follow. Further columns of the screen follow, without active or inactive calls. Compounds called inactive in the main read-out are mostly missing here. Potencies come from curve fits of mixed quality, noted in brackets.

Test: qHTS Assay for Lipid Storage Modulators in Drosophila S3 Cells;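 on cell number change: cells counted by Cell Tracker Red CMTPX staining in the red channel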
Settings: BODIPY lipid droplet fluorescence, 18-24 h; for cell number change: measured here: cell count max response, cells fed with added oleic acid
Summary of the method: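 Laser-scanning cytometry quantifies lipid droplet accumulation (500–530 nm total intensity; droplet/cell object ratio) in oleic acid-fed (400 uM added) Drosophila S3 cells treated with a concentration series. 20 uM Triacsin C defined 100% inhibition.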

[1] = measured here: cell number channel AC50, cells fed with added oleic acid
[2] = measured here: lipid fluorescence (Fed channel) AC50, cells fed with added oleic acid

Row | SMILES | cell number change [%] | AC50 [1] | AC50 [2]
1 | COC(=O)c1ccccc1C(=O)N1CCCC(C(=O)c2ccc(OC)c(OC)c2)C1 (centres undefined) | -36.8 | 25.9 µM [falling, partial curve] | 18.4 µM [falling, partial curve, poor fit]
2 | Cc1cc(=O)[nH]c(SCCCOc2ccc(F)cc2)n1 |  | 0.103 µM [falling, full curve] | 1.16 µM [falling, full curve]
3 | Cc1ccccc1NC1=C/C(=N\S(=O)(=O)c2cccs2)c2ccccc2C1=O | -88.7 | 10.3 µM [falling, partial curve] | 16.4 µM [falling, partial curve]
4 | COCCN(C(=O)Cn1nnc2ccccc21)C(C(=O)NC1CCCC1)c1ccc(OC)cc1OC (centres undefined) | -16.3 |  | 29.1 µM [falling, single point]
5 | CC1CCN(CCCNS(=O)(=O)c2ccc3c(c2)CCN3C(=O)C2CC2)CC1 |  | 1.64 µM [rising, partial curve, poor fit] | 
6 | CCOP(=O)(c1ccc(N(C)C)cc1)C(O)c1ccc(Cl)cc1 (centres undefined) | -23.8 | 3.66 µM [falling, full curve, poor fit] | 6.51 µM [falling, single point]
7 | COc1cccc(-c2nc3sc4c(c3c(=O)[nH]2)CCCCC4)c1 | 3.69 |  | 6.51 µM [falling, full curve]
8 | Cc1ccc(NC(=S)NC2CCCC2)c(C)c1 | 23.6 |  | 
9 | Cn1c2ccc(F)cc2c2nnc(SCCN3CCCCC3)nc21 | -23.6 |  | 0.731 µM [falling, partial curve, poor fit]
10 | CC(C)N=C(NC#N)SCc1ccccc1 | -6 |  | 
11 | Cc1ccc(-c2noc(CCC(=O)NCc3ccccc3CN3CCOCC3)n2)cc1 | -17.9 |  | 1.46 µM [rising, partial curve]
12 | CC(/C=N\N1CCN(c2ccc(Cl)cc2)CC1)=C\c1ccccc1 |  | 1.84 µM [falling, partial curve, poor fit] | 
13 | CCOc1ccc(NC(=O)CSc2nc3ccccc3nc2N2CC(C)OC(C)C2)cc1 (centres undefined) | -29.1 |  | 29.1 µM [falling, partial curve, poor fit]
14 | COc1ccc(OC)c(CNn2c(-c3cccc(C)c3)nc3ccccc3c2=O)c1 |  |  | 0.58 µM [rising, single point]
15 | O=C(C1=C(O)C(=O)N(Cc2ccccc2)C1c1ccncc1)c1ccco1 (centres undefined) | 1.32 |  | 1.03 µM [falling, full curve, poor fit]
16 | Cc1ccc(NC2=NCC(=O)N2C2CCCC2)cc1 | 16.2 | 6.51 µM [falling, single point] | 1.84 µM [falling, partial curve, poor fit]
17 | CC(C)CNS(=O)(=O)c1ccc(CCC(=O)Nc2ccc3c(c2)OCO3)cc1 | 10.9 |  | 2.59 µM [rising, partial curve, poor fit]
18 | COc1cccc(N2CCN(C(=O)CCCCCNc3nc(=S)[nH]c4ccccc34)CC2)c1 | -8.21 |  | 
19 | CC(Oc1ccc(Cl)cc1)C(=O)Nc1ccc(S(=O)(=O)Nc2nccs2)cc1 (centres undefined) | 6.09 |  | 29.1 µM [falling, partial curve]
20 | O=C(Cn1c(=O)cnc2ccccc21)Nc1cccc(S(=O)(=O)N2CCOCC2)c1 | 32.7 | 10.3 µM [rising, single point] | 

Whole records, quoted from the list.
CC(C)N=C(NC#N)SCc1ccccc1 in the list: cell number change [%]: -6
Cc1ccccc1NC1=C/C(=N\S(=O)(=O)c2cccs2)c2ccccc2C1=O in the list: cell number change [%]: -88.7; AC50 [1]: 10.3 µM [falling, partial curve]; AC50 [2]: 16.4 µM [falling, partial curve]

Remaining list, next part.

Row | SMILES | cell number change [%] | AC50 [1] | AC50 [2]
21 | COc1cccc(/C=C/C(=O)NCCc2ccc(OC)c(OC)c2)c1 | -37.3 | 11.6 µM [falling, single point] | 
22 | c1ccc2c3c([nH]c2c1)CCNC3 | 15.3 |  | 
23 | O=C(c1ccc2c(c1)OCO2)N(c1ccccc1)C1C=CS(=O)(=O)C1 (centres undefined) | 6.9 |  | 2.59 µM [rising, single point]
24 | O=C(Cc1ccccc1F)NC1CCSc2ccccc21 (centres undefined) | 35.3 |  | 29.1 µM [rising, single point]
25 | Cc1ccc(C(=O)NC(=S)N2CCN(C)CC2)cc1 | -24.6 | 0.13 µM [falling, full curve, poor fit] | 0.82 µM [falling, full curve]
26 | CN(C(=O)C(C)(C)C)c1ccc(OCC(=O)N2CCc3ccccc3C2)cc1 | 8.97 |  | 
27 | Cc1cc(NC(=O)CSc2nnnn2C)n(-c2ccccc2)n1 | 37.9 | 9.2 µM [rising, partial curve] | 13 µM [rising, partial curve]
28 | O=C(CSc1nnc(COc2ccc(Cl)cc2Cl)o1)Nc1ccccn1 | 22.2 |  | 29.1 µM [rising, single point]
29 | NS(=O)(=O)c1ccc(NC2=CC(=O)C(=O)c3ccccc32)cc1 | -41.4 | 18.4 µM [falling, partial curve] | 
30 | COP(=O)(CC(=O)c1ccccc1)CC(=O)c1ccccc1 | -42.3 |  | 29.1 µM [falling, single point]
31 | CCOc1ccc(NC(=S)NNC(=S)Nc2cccc(C(F)(F)F)c2)cc1 | -36.9 | 23.1 µM [falling, single point] | 23.1 µM [falling, single point]
32 | Cc1ccc(CN2CC(C(=O)Nc3ccccc3N3CCCC3)CC2=O)cc1 (centres undefined) | 63.9 | 23.1 µM [rising, partial curve] | 
33 | CCOC(=O)CC1C(=O)NCCN1C(=O)c1cccc(C(F)(F)F)c1 (centres undefined) | 0.595 |  | 23.1 µM [falling, single point]
34 | O=[N+]([O-])c1ccc(Cl)c(NC(=S)N2CCCC2)c1 | 24.6 |  | 
35 | COc1cccc(CNC(=O)c2cc3ccccn3n2)c1 |  |  | 0.00517 µM [rising, full curve, poor fit]
36 | CCc1ccccc1NC(=O)Cn1nnc(-c2cccnc2)n1 | -9.64 |  | 18.4 µM [rising, single point]
37 | CSc1ccccc1NC(=O)CO/N=C(\C)c1cc2ccccc2o1 | -32.5 | 1.03 µM [falling, full curve, poor fit] | 
38 | O=Cc1cccn1-c1ncc(Br)cn1 | 21.3 |  | 
39 | NS(=O)(=O)c1cccc(NC(=O)c2cccc(-c3ccc(O)cc3)c2)c1 | 21 |  | 6.51 µM [falling, single point]
